Reference: publication PMC2853515
No constants are given. Whether binding was seen depends on the method and setting. Some results given as binding are weak or reduced against the parent protein; the word gives no strength.

Sequences of proteins named here, by UniProt entry; tags and fusion partners are left off. Residues count along the entry.
UniProt Q13751, residues 18-1172: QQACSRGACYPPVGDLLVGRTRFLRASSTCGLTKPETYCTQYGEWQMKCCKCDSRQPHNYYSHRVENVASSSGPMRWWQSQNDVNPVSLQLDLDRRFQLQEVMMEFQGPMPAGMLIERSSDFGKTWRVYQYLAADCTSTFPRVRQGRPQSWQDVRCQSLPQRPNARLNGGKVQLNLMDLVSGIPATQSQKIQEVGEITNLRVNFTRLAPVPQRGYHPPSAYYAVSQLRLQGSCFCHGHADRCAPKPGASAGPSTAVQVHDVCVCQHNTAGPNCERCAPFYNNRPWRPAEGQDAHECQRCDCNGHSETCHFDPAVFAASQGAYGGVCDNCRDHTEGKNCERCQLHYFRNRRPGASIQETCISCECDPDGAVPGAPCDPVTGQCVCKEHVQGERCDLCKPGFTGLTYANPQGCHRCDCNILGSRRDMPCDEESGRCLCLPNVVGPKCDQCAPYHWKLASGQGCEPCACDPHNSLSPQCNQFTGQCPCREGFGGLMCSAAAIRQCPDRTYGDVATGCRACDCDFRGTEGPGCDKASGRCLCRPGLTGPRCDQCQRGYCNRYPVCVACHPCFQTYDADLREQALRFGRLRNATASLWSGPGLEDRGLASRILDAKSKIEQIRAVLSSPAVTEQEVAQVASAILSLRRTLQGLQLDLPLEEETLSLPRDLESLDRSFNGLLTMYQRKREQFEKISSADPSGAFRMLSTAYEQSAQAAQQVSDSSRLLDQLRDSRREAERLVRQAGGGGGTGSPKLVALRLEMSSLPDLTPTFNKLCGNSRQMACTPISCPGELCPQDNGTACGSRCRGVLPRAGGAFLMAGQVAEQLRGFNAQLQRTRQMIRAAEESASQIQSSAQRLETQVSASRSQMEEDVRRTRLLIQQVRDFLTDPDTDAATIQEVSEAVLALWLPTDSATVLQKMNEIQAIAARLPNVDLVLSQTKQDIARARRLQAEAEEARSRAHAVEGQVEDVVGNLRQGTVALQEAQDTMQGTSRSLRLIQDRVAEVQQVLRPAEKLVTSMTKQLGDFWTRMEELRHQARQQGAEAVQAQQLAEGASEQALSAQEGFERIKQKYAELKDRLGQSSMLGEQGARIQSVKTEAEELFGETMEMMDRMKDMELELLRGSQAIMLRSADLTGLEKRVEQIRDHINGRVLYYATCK

What was measured:
[1] = molecular target: T1, laminin-γ2 chain (human (endogenous in SW620 and LT97)) (UniProt Q13753); assay: Western blot under reducing conditions with laminin chain-specific antibodies; conditioned media of LT97 adenoma cells treated with TGFβ and TNFα; data not shown
T1 sequence: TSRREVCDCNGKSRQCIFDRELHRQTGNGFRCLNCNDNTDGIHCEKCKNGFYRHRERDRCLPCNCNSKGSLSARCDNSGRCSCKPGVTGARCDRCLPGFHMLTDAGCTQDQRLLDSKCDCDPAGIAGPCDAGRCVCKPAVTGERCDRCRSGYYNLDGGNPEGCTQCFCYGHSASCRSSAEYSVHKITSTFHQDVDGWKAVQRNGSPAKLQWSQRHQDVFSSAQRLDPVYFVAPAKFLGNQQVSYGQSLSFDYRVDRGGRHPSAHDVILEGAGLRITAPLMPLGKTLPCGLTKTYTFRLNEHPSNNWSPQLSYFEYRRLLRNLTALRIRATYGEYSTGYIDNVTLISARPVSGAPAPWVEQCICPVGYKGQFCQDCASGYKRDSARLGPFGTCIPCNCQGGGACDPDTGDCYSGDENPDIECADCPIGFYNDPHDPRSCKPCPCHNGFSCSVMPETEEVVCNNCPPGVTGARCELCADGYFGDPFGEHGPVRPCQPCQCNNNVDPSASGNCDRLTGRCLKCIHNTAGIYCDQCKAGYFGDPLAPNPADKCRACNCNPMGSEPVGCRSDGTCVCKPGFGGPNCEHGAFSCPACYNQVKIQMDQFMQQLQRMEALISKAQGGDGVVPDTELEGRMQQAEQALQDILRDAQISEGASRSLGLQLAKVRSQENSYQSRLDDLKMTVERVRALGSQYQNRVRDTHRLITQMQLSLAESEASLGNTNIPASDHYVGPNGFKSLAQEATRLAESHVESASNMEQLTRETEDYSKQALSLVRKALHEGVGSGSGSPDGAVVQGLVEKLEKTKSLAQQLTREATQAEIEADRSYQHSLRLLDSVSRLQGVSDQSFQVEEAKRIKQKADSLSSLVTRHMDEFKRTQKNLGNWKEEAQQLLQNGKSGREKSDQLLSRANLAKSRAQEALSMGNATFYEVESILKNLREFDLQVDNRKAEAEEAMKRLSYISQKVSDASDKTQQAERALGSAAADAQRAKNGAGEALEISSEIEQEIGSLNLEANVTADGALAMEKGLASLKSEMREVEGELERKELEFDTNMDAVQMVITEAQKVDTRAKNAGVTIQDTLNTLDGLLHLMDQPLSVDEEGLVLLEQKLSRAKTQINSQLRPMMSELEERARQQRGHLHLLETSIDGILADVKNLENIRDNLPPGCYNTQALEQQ

[2] = molecular target: T1, laminin-γ2 chain (human (endogenous in SW620 and LT97)); assay: SDS-PAGE under non-reducing conditions with Western blot; proteins from conditioned media of SW620 cells treated with TGFβ and TNFα for 48 h; 8% polyacrylamide gel without dithiothreitol; probed with laminin-γ2-specific antibody 2140 (same pattern with MAB 19562)

laminin-β3 chain (from UniProt Q13751 18-1172)
binding [1]: binds

B1: laminin-γ2 chain (protein, UniProt Q13753 22-1193)
chain: TSRREVCDCNGKSRQCIFDRELHRQTGNGFRCLNCNDNTDGIHCEKCKNGFYRHRERDRCLPCNCNSKGSLSARCDNSGRCSCKPGVTGARCDRCLPGFHMLTDAGCTQDQRLLDSKCDCDPAGIAGPCDAGRCVCKPAVTGERCDRCRSGYYNLDGGNPEGCTQCFCYGHSASCRSSAEYSVHKITSTFHQDVDGWKAVQRNGSPAKLQWSQRHQDVFSSAQRLDPVYFVAPAKFLGNQQVSYGQSLSFDYRVDRGGRHPSAHDVILEGAGLRITAPLMPLGKTLPCGLTKTYTFRLNEHPSNNWSPQLSYFEYRRLLRNLTALRIRATYGEYSTGYIDNVTLISARPVSGAPAPWVEQCICPVGYKGQFCQDCASGYKRDSARLGPFGTCIPCNCQGGGACDPDTGDCYSGDENPDIECADCPIGFYNDPHDPRSCKPCPCHNGFSCSVMPETEEVVCNNCPPGVTGARCELCADGYFGDPFGEHGPVRPCQPCQCNNNVDPSASGNCDRLTGRCLKCIHNTAGIYCDQCKAGYFGDPLAPNPADKCRACNCNPMGSEPVGCRSDGTCVCKPGFGGPNCEHGAFSCPACYNQVKIQMDQFMQQLQRMEALISKAQGGDGVVPDTELEGRMQQAEQALQDILRDAQISEGASRSLGLQLAKVRSQENSYQSRLDDLKMTVERVRALGSQYQNRVRDTHRLITQMQLSLAESEASLGNTNIPASDHYVGPNGFKSLAQEATRLAESHVESASNMEQLTRETEDYSKQALSLVRKALHEGVGSGSGSPDGAVVQGLVEKLEKTKSLAQQLTREATQAEIEADRSYQHSLRLLDSVSRLQGVSDQSFQVEEAKRIKQKADSLSSLVTRHMDEFKRTQKNLGNWKEEAQQLLQNGKSGREKSDQLLSRANLAKSRAQEALSMGNATFYEVESILKNLREFDLQVDNRKAEAEEAMKRLSYISQKVSDASDKTQQAERALGSAAADAQRAKNGAGEALEISSEIEQEIGSLNLEANVTADGALAMEKGLASLKSEMREVEGELERKELEFDTNMDAVQMVITEAQKVDTRAKNAGVTIQDTLNTLDGLLHLMDQPLSVDEEGLVLLEQKLSRAKTQINSQLRPMMSELEERARQQRGHLHLLETSIDGILADVKNLENIRDNLPPGCYNTQALEQQ
binding [2]: no binding
